{"source": "paper PMC6617969", "target": "T1, His6‐DnaA‐FLAG (E. coli) (UniProt P03004)", "T1 sequence": "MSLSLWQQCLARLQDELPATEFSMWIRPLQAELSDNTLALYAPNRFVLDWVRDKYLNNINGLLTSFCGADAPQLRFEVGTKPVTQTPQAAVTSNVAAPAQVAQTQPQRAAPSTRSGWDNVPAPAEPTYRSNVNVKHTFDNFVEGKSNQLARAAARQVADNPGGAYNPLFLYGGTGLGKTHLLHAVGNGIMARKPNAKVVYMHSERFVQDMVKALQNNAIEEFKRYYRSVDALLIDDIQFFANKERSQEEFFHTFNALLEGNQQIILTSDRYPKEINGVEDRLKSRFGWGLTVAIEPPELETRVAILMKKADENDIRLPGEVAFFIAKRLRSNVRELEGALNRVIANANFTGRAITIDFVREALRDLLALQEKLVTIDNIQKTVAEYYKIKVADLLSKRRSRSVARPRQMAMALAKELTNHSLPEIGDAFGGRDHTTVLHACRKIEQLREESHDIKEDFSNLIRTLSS", "experiment": "pull-down; affinity tagged pull‐down of purified proteins; 1 × TBS containing 1 mM PMSF; western blotting with antibodies against FLAG or Myc; both purified", "note": "These are yes or no findings as the source states them, for the method shown. Tags and fused reporters may be left off the sequences shown.", "data": [{"substance": "Myc‐tagged MSMEG_2415 (from UniProt A0QV17 1-192)", "values": [{"measurement": "binding", "result": "no binding"}]}]}
